{"source": "patent US20220110924A1", "about": "“METHODS AND COMPOSITIONS FOR GENETIC MODULATION OF TUMOR MICROENVIRONMENTS” (HUYABIO International, LLC, priority 2020, published 2022)", "origin": "cited, not measured here", "tested_on": "RR/PTCL", "settings": "RR/PTCL historical benchmark; cited from earlier work", "note": "For at least one compound, name, drawing or mass did not settle the structure."}
{"smiles": "C/C=C1\\NC(=O)[C@H]2CSSCC/C=C/[C@H](CC(=O)N[C@H](C(C)C)C(=O)N2)OC(=O)[C@H](C(C)C)NC1=O", "note": "[Romidepsin]", "values": [{"measurement": "ORR", "value": 43, "unit": "%"}]}
